According to the supplement of paper PMC8728848:
Some of the results follow.

Tests used:
Assay in all cases: glycan array binding signal (z-score within array); higher = stronger binding
Details in all cases: glycan notation: IUPAC condensed, linker removed
[1] = target: Gal(b1-4)GlcNAc(b1-2)Man(a1-6)[Man(a1-3)]Man(b1-4)GlcNAc(b1-4)GlcNAc
Procedure, shortened: (§1)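 Arrays were curated from the Consortium for Functional Glycomics database, 3228 in total, and kept only where the protein sequence was available. Binding is expressed as a within-array Z-score. This score was averaged across arrays of the same protein sequence at different concentrations or buffers and across linkers, and negative values can be read as non-binding.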

[2] = target: Gal(b1-4)GlcNAc(b1-2)[Gal(b1-4)GlcNAc(b1-4)]Man(a1-3)[Gal(b1-4)GlcNAc(b1-2)Man(a1-6)]Man(b1-4)GlcNAc(b1-4)GlcNAc
Procedure, shortened: as §1

[3] = target: Gal(b1-4)GlcNAc(b1-2)[Gal(b1-4)GlcNAc(b1-4)]Man(a1-3)[Gal(b1-4)GlcNAc(b1-2)[Gal(b1-4)GlcNAc(b1-6)]Man(a1-6)]Man(b1-4)GlcNAc(b1-4)GlcNAc
Procedure, shortened: as §1

[4] = target: Gal(b1-4)GlcNAc(b1-2)[Gal(b1-4)GlcNAc(b1-4)]Man(a1-3)[GlcNAc(b1-4)][Gal(b1-4)GlcNAc(b1-2)Man(a1-6)]Man(b1-4)GlcNAc(b1-4)GlcNAc
Procedure, shortened: as §1

[5] = target: Gal(b1-4)GlcNAc(b1-2)[Gal(b1-4)GlcNAc(b1-4)]Man(a1-3)[GlcNAc(b1-4)][Gal(b1-4)GlcNAc(b1-2)[Gal(b1-4)GlcNAc(b1-6)]Man(a1-6)]Man(b1-4)GlcNAc(b1-4)GlcNAc
Procedure, shortened: as §1

[6] = target: Gal(b1-4)GlcNAc(b1-2)[Gal(b1-4)GlcNAc(b1-6)]Man(a1-6)[Gal(b1-4)GlcNAc(b1-2)Man(a1-3)]Man(b1-4)GlcNAc(b1-4)GlcNAc
Procedure, shortened: as §1

[7] = target: Gal(b1-4)GlcNAc(b1-2)[Gal(b1-4)GlcNAc(b1-6)]Man(a1-6)[Gal(b1-4)GlcNAc(b1-2)Man(a1-3)]Man(b1-4)GlcNAc(b1-4)[Fuc(a1-6)]GlcNAc
Procedure, shortened: as §1

[8] = target: Gal(b1-4)GlcNAc(b1-2)[Gal(b1-4)GlcNAc(b1-6)]Man(a1-6)[GlcNAc(b1-4)][Gal(b1-4)GlcNAc(b1-2)Man(a1-3)]Man(b1-4)GlcNAc(b1-4)GlcNAc
Procedure, shortened: as §1

[9] = target: Gal(b1-4)GlcNAc(b1-2)[Gal(b1-4)GlcNAc(b1-6)]Man(a1-6)[GlcNAc(b1-4)][Gal(b1-4)GlcNAc(b1-2)[Gal(b1-4)GlcNAc(b1-4)]Man(a1-3)]Man(b1-4)GlcNAc(b1-4)[Fuc(a1-6)]GlcNAc
Procedure, shortened: as §1

[10] = target: Gal(b1-4)GlcNAc(b1-3)Gal(b1-3)GalNAc
Procedure, shortened: as §1

[11] = target: Gal(b1-4)GlcNAc(b1-3)Gal(b1-3)GlcNAc
Procedure, shortened: as §1

[12] = target: Gal(b1-4)GlcNAc(b1-3)Gal(b1-4)Glc
Procedure, shortened: as §1

[13] = target: Gal(b1-4)GlcNAc(b1-3)Gal(b1-4)GlcNAc
Procedure, shortened: as §1

[14] = target: Gal(b1-4)GlcNAc(b1-3)Gal(b1-4)GlcNAc(b1-2)Man(a1-3)[Gal(b1-4)GlcNAc(b1-3)Gal(b1-4)GlcNAc(b1-2)Man(a1-6)]Man(b1-4)GlcNAc(b1-4)GlcNAc
Procedure, shortened: as §1

[15] = target: Gal(b1-4)GlcNAc(b1-3)Gal(b1-4)GlcNAc(b1-2)Man(a1-3)[Gal(b1-4)GlcNAc(b1-3)Gal(b1-4)GlcNAc(b1-2)Man(a1-6)]Man(b1-4)GlcNAc(b1-4)[Fuc(a1-6)]GlcNAc
Procedure, shortened: as §1

[16] = target: Gal(b1-4)GlcNAc(b1-3)Gal(b1-4)GlcNAc(b1-2)[Gal(b1-4)GlcNAc(b1-3)Gal(b1-4)GlcNAc(b1-6)]Man(a1-6)[Gal(b1-4)GlcNAc(b1-3)Gal(b1-4)GlcNAc(b1-2)Man(a1-3)]Man(b1-4)GlcNAc(b1-4)GlcNAc
Procedure, shortened: as §1

[17] = target: Gal(b1-4)GlcNAc(b1-3)Gal(b1-4)GlcNAc(b1-2)[Gal(b1-4)GlcNAc(b1-3)Gal(b1-4)GlcNAc(b1-6)]Man(a1-6)[Gal(b1-4)GlcNAc(b1-3)Gal(b1-4)GlcNAc(b1-2)Man(a1-3)]Man(b1-4)GlcNAc(b1-4)[Fuc(a1-6)]GlcNAc
Procedure, shortened: as §1

[18] = target: Gal(b1-4)GlcNAc(b1-3)Gal(b1-4)GlcNAc(b1-3)Gal(b1-4)GlcNAc
Procedure, shortened: as §1

[19] = target: Gal(b1-4)GlcNAc(b1-3)Gal(b1-4)GlcNAc(b1-3)Gal(b1-4)GlcNAc(b1-2)Man(a1-3)[Gal(b1-4)GlcNAc(b1-3)Gal(b1-4)GlcNAc(b1-3)Gal(b1-4)GlcNAc(b1-2)Man(a1-6)]Man(b1-4)GlcNAc(b1-4)GlcNAc
Procedure, shortened: as §1

[20] = target: Gal(b1-4)GlcNAc(b1-3)Gal(b1-4)GlcNAc(b1-3)Gal(b1-4)GlcNAc(b1-2)Man(a1-3)[Gal(b1-4)GlcNAc(b1-3)Gal(b1-4)GlcNAc(b1-3)Gal(b1-4)GlcNAc(b1-2)Man(a1-6)]Man(b1-4)GlcNAc(b1-4)[Fuc(a1-6)]GlcNAc
Procedure, shortened: as §1

[21] = target: Gal(b1-4)GlcNAc(b1-3)Gal(b1-4)GlcNAc(b1-3)Gal(b1-4)GlcNAc(b1-2)[Gal(b1-4)GlcNAc(b1-3)Gal(b1-4)GlcNAc(b1-3)Gal(b1-4)GlcNAc(b1-6)]Man(a1-6)[Gal(b1-4)GlcNAc(b1-3)Gal(b1-4)GlcNAc(b1-3)Gal(b1-4)GlcNAc(b1-2)Man(a1-3)]Man(b1-4)GlcNAc(b1-4)[Fuc(a1-6)]GlcNAc
Procedure, shortened: as §1

[22] = target: Gal(b1-4)GlcNAc(b1-3)Gal(b1-4)GlcNAc(b1-3)Gal(b1-4)GlcNAc(b1-3)Gal(b1-4)GlcNAc(b1-2)Man(a1-3)[Gal(b1-4)GlcNAc(b1-3)Gal(b1-4)GlcNAc(b1-3)Gal(b1-4)GlcNAc(b1-3)Gal(b1-4)GlcNAc(b1-2)Man(a1-6)]Man(b1-4)GlcNAc(b1-4)GlcNAc
Procedure, shortened: as §1

B1: Clec18A (Homo sapiens) (protein)
chain: PFHTCDLRIDGDCFMVSSEADTYYRARMKCQRKGGVLAQIKRQKVQDILAFYLGRLETTNEVIDSDFETRNFWIGLTYKTAKDSFRWATGEHQAFTSFAFGQPDNHGFGNCVELQASAAFNWNDQRCKTRNRYICQ
glycan array binding signal (z-score) [1]: 1.75 | glycan array binding signal (z-score) [2]: 1.42 | glycan array binding signal (z-score) [3]: 0.93 | glycan array binding signal (z-score) [4]: 1.47 | glycan array binding signal (z-score) [5]: -0.093 | glycan array binding signal (z-score) [6]: 1.04 | glycan array binding signal (z-score) [7]: 3.1 | glycan array binding signal (z-score) [8]: -0.289 | glycan array binding signal (z-score) [9]: 0.191 | glycan array binding signal (z-score) [10]: 1.44 | glycan array binding signal (z-score) [11]: -0.605 | glycan array binding signal (z-score) [12]: -0.291 | glycan array binding signal (z-score) [13]: 3.23 | glycan array binding signal (z-score) [14]: 0.042 | glycan array binding signal (z-score) [15]: 1.92 | glycan array binding signal (z-score) [16]: 1.9 | glycan array binding signal (z-score) [17]: 1.52 | glycan array binding signal (z-score) [18]: 0.45 | glycan array binding signal (z-score) [19]: 0.556 | glycan array binding signal (z-score) [20]: 2.33 | glycan array binding signal (z-score) [21]: 3.83 | glycan array binding signal (z-score) [22]: 1.11
